Results: PubChem BioAssay AID720504 (National Center for Advancing Translational Sciences (NCATS), 2013)
Among all 360,000 compounds or so, about 10,000 (2.8%) were called active. The inconclusive results got no clear call from the source; some entries with a clear call stand among them for comparison. Calls come from the whole dose curve; as a rule, active = well fitted inhibition curve with a large enough effect; inconclusive = small, poorly fitted or top-dose-only effect; inactive = flat fitted curve, though single readings scatter. Where the call is inconclusive, the potency comes from a doubtful curve fit.

By UniProt entry, the sequences of proteins in these tests, tags left out.
UniProt P53350, whole entry, looked up: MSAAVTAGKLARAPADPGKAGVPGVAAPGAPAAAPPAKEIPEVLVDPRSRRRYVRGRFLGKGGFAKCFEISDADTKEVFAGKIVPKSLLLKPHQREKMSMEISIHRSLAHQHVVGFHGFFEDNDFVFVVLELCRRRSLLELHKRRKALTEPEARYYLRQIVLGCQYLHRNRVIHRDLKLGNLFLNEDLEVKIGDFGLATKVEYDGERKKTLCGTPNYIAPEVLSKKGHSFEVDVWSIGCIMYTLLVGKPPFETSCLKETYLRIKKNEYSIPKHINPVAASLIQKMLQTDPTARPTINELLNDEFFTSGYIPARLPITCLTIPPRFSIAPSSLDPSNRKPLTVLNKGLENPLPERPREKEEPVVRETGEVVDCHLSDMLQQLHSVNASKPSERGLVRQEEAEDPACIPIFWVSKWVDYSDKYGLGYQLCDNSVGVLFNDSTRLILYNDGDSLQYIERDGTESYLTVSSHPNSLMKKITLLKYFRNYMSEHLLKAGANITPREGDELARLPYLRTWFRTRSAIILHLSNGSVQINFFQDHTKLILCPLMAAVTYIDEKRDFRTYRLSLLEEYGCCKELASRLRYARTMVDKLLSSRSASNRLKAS

Each compound was assayed against Serine/threonine-protein kinase PLK1 (Homo sapiens) (UniProt P53350) (assay: qHTS for Inhibitors of PLK1-PDB (polo-like kinase 1 - polo-box domain): Primary Screen). Settings: Plk1 PBD binding of FITC phosphopeptide, fluorescence polarization.
% is set by controls: 0 for no effect and ±100 for the full control effect; potency is the fitted concentration of half-maximal effect.
Note: nearly all actives have a fitted effect of over 65% in size.
Throughout, for max response, negative = inhibition: series mostly up to about 57 µM.

Structure (SMILES) | Potency | max response, negative = inhibition
CCn1c(C)nc2cc(S(N)(=O)=O)ccc21 | inconclusive: 37.7 µM [inhibitor, single point] | 
CC1(c2ccco2)NC(=O)NC1=O (centres undefined) | active: 23.8 µM | 
O=C(C1=C(O)C(=O)N(Cc2ccco2)C1c1ccccc1)c1cccs1 (centres undefined) | inconclusive: 21.2 µM [inhibitor, partial curve] | 
c1ccc2c(-c3nc(-c4ccncc4)no3)cccc2c1 |  | inactive: -4.08%
CCOC(=O)C1CCCN(Cc2ccc(OCC)cc2)C1 (centres undefined) |  | inactive: -2.67%
CCc1nnc(NS(=O)(=O)c2ccc(N/C=C\C(=O)c3ccc(C)cc3)cc2)s1 | inconclusive: 29.9 µM [inhibitor, single point] | 
Cc1ccccc1C(=O)Nc1cc(S(=O)(=O)N2CCCCC2)ccc1N1CCN(C)CC1 | active: 5.97 µM | 
Nc1ccc2nc(SCc3ccccc3F)sc2c1 | active: 15 µM | 
O=c1c(-c2n[nH]c(=S)o2)cccn1Cc1ccccc1 | inconclusive: 29.9 µM [inhibitor, partial curve] | 
Cc1sc(N/N=C/c2cccs2)nc1-c1ccccc1 | inconclusive: 37.7 µM [inhibitor, single point] | 
COc1ccc(CNC(=O)c2ccc(SC)cc2OC)cc1 |  | inactive: -8.97%
CCN(C(=O)CSc1nnc(Nc2ccccc2C)s1)C1CCS(=O)(=O)C1 (centres undefined) |  | inactive: -7.95%
O=C(CSc1nnc(-c2cccc(S(=O)(=O)N3CCCC3)c2)n1-c1ccccc1)Nc1ccc(C(=O)O)cc1 | active: 75.2 µM | 
CCSc1nnc(NC(NC(C)=O)(C(F)(F)F)C(F)(F)F)s1 |  | inactive: -5.11%
Cc1ccc(CCNC(=O)CS(=O)Cc2nc(-c3ccccc3F)oc2C)cc1 (centres undefined) | inconclusive: 23.8 µM [inhibitor, single point] | 
O=C(NCc1ccc(Cl)cc1)c1ccc(Cl)cc1[N+](=O)[O-] | inconclusive: 9.47 µM [inhibitor, partial curve] | 
COc1cccc(NC2SC(=O)N(c3ccccc3)C2=O)c1 (centres undefined) | inconclusive: 26.7 µM [inhibitor, single point] | 
Cc1ccc(-c2nn(-c3ccccc3)cc2CC(=S)N2CCOCC2)cc1 |  | inactive: -13.9%
CS(=O)(=O)c1sc(C(=O)NC(=S)Nc2ccc(OC(F)(F)F)cc2)c2c1C=CCC2 | inconclusive: 26.7 µM [inhibitor, partial curve] | 
O=C(CSc1nc2ccccc2c(=O)[nH]1)Nc1ccc(N2CCOCC2)cc1 |  | inactive: -2.52%
COC(=O)c1ccc(N2C(=O)CC(SCC(=O)Nc3ccc(OC)cc3)C2=O)cc1 (centres undefined) | inconclusive: 13.4 µM [inhibitor, partial curve] | 
O=C1CC(Sc2nnc(-c3ccccc3)o2)C(=O)N1c1ccccc1 (centres undefined) | inconclusive: 26.7 µM [inhibitor, single point] | 
CCOC(=O)c1ccccc1NC(=O)Cn1cnc2c(cnn2C(C)(C)C)c1=O |  | inactive: -10.3%
N#Cc1ccc(-c2csc(NC(=O)c3cc(-c4cccs4)nc4ccccc34)n2)cc1 |  | inconclusive: -35.8% [inhibitor]
COc1cccc(CC2(CO)CCCN(Cc3sc(N4CCCC4)nc3Cl)C2)c1 (centres undefined) | inconclusive: 26.7 µM [inhibitor, single point] | 

Full records, quoted from the list:
COc1cccc(CC2(CO)CCCN(Cc3sc(N4CCCC4)nc3Cl)C2)c1 (centres undefined) as listed: Potency: inconclusive: 26.7 µM [inhibitor, single point]
O=C(CSc1nnc(-c2cccc(S(=O)(=O)N3CCCC3)c2)n1-c1ccccc1)Nc1ccc(C(=O)O)cc1 as listed: Potency: active: 75.2 µM
Cc1ccc(-c2nn(-c3ccccc3)cc2CC(=S)N2CCOCC2)cc1 as listed: max response, negative = inhibition: inactive: -13.9%

Continued:

Structure (SMILES) | Potency | max response, negative = inhibition
Cc1[nH]c2ccccc2c1CCN(Cc1cccnc1)C(=S)Nc1ccc(F)cc1 |  | inactive: -0.478%
O=C(CSc1ccc(Br)cc1)NCC(c1cccs1)N1CCOCC1 (centres undefined) | inconclusive: 11.9 µM [inhibitor, partial curve] | 
Cn1nc(Cc2n[nH]c(=S)n2C)c2ccccc2c1=O |  | inactive: -0.848%
COc1ccc(/C=C/C(=O)NC(=S)Nc2ccc(S(=O)(=O)Nc3cc(OC)ncn3)cc2)cc1 | inconclusive: 21.2 µM [inhibitor, single point] | 
O=C(O)c1cccc(Nc2nc(-c3cccnc3)nc3ccccc23)c1 |  | inactive: -5.75%
CCOC(=O)c1sc(/S(C)=N\S(=O)(=O)c2cccc(Cl)c2)c2c1CCC=C2 (centres undefined) | inconclusive: 26.7 µM [inhibitor, single point] | 
CC(C)=NNc1cnnc2ccc([N+](=O)[O-])cc12 |  | inactive: -11.2%
CCCc1ccc(NC(=O)C2CCN(c3cnccn3)CC2)cc1 |  | inactive: -13.9%
CCC(=O)N1CCc2cc(OC)c(OC)cc2C1COc1ccc(C(=O)OC)cc1 (centres undefined) |  | inactive: -5.74%
CCOC(=O)C1=C(C)NC(C)=C(C(=O)OCC)C1C(=O)OCC(N)=O |  | inactive: -1.3%
Cc1cccc(C(=O)c2c(N)sc3c2CCCC3)c1 |  | inconclusive: -35.7% [inhibitor]
Cc1ccc(NC(=O)CN2C(=O)S/C(=C\c3cc(Cl)c(OCC(=O)O)c(Cl)c3)C2=O)cc1 | active: 23.8 µM | 
O=C(NC(=S)Nc1ccccc1)c1cc(-c2ccccc2)nc2ccccc12 |  | inactive: -13.7%
CCOC(=O)C1(Cc2ccc(OC)cc2)CCN(C(=O)c2sc(C)nc2C)CC1 |  | inactive: 1.63%
COc1ccc(NC(=S)NC(=O)c2ccccc2Cl)cc1 | active: 26.7 µM | 
O=C(/C=C/c1cccc([N+](=O)[O-])c1)Nc1ccc(Cl)cn1 | inconclusive: 18.9 µM [inhibitor, single point] | 
Cc1nccn1-c1c([N+](=O)[O-])c(=O)n(C)c2ccccc12 |  | inactive: -7.47%
COCCNC(=O)c1ccc2c(=O)n(Cc3ccco3)c(SCC(=O)Nc3ccc(OC)cc3OC)nc2c1 | inconclusive: 13.4 µM [inhibitor, partial curve] | 
Cc1cc(OCc2nc3ccccc3s2)ccc1N | active: 10.6 µM | 
CN(Cc1ccccc1)Cc1c(O)ccc2ccccc12 | inconclusive: 11.9 µM [inhibitor, partial curve] | 
CCCCNc1ccc(C(=O)O)cc1 | inconclusive: 26.7 µM [inhibitor, partial curve] | 
Cc1ccc(C2NC(=O)Cc3ccccc32)cc1 (centres undefined) |  | inactive: -2.18%
O=C(Nc1cc(S(=O)(=O)N2CCOCC2)ccc1N1CCOCC1)c1cccc(Cl)c1 |  | inactive: -1.99%
CC(=O)N1N=C(c2ccc(Cl)cc2)CC1c1ccco1 (centres undefined) |  | inactive: -13.3%
